Experimental data reported in publication doi:10.1101/2021.09.17.460294.
No constants are given. Whether binding was seen depends on the method and setting. In cells and extracts the contact can be indirect. A result given as binding can be weak or reduced; the word gives no strength. Tags and fused reporters may be left off the sequences shown.

Target: T1, GST-LKB1 (UniProt Q15831)
T1 sequence: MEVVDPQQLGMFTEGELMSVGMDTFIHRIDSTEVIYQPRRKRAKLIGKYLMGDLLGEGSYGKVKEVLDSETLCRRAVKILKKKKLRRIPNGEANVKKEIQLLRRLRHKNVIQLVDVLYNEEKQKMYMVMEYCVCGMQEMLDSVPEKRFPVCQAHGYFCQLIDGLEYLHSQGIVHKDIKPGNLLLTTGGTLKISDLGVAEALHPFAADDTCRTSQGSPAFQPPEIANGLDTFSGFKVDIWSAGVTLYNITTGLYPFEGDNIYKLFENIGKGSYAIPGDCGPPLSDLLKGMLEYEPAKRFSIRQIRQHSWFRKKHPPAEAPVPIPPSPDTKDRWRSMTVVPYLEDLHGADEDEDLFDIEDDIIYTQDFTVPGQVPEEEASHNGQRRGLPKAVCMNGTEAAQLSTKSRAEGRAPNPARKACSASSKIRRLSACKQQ
Experiment: pull-down

Row | binding | Substance
1 | binds | Venus-flag (VF)-tagged cIAP1 BIR1 domain truncation (B1) (domain or fragment)
2 | binds | Venus-flag (VF)-tagged cIAP1 BIR2 domain truncation (B2) (domain or fragment)
